Laboratory results reported in the supplement of paper PMC9254222.
In all, about 1,100 compounds were measured (“Renilla luciferase signal (cell health) relative to plate median”: median about 0.97, highest 2% from about 1.6 on). The entries are a selection whose mix differs from that of the whole data set.

Test system: HEK293T (UBE3A T485A transfected, BAR Wnt reporter)
Assay: Renilla luciferase signal (cell health) relative to plate median (fold (linear ratio)); higher = higher Renilla signal
Settings: 24 h
How it was run: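 HEK293T cells were grown in DMEM with 10% FBS at 37°C and 5% CO2, at 4500 cells/well in white 384-well plates. They were transfected with a BAR firefly luciferase Wnt reporter, TK-Renilla and an expression plasmid using Fugene 6. Four hours later, robots dosed the chemicals at 0.01–100 uM for 24 h, followed by Dual-Glo luciferase readout. Wnt activity (firefly/Renilla ratio) and cell health (raw Renilla) were median-centred per plate, averaged over four biological replicates.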

Compound | Renilla luciferase signal (concentration: 0.1 uM) | Renilla luciferase signal (concentration: 1 uM) | Renilla luciferase signal (concentration: 10 uM) | Renilla luciferase signal (concentration: 100 uM) | Renilla luciferase signal (concentration: 0.01 uM)
CC(=O)Nc1ccc(O)cc1 [Acetaminophen] | 0.68 | 0.735 | 0.812 | 1.3 | 
C#CCOC(=O)[C@@H](C)Oc1ccc(Oc2ncc(Cl)cc2F)cc1 [Clodinafop-propargyl] | 1.11 | 1.04 | 1.01 | 0.269 | 0.926
Cc1ccc(C(C)(C)C)c(O)c1 [2-tert-Butyl-5-methylphenol] | 0.848 | 0.903 | 0.918 | 1.21 | 
COc1cc(C=O)ccc1O [4-Hydroxy-3-methoxybenzaldehyde] | 0.805 | 0.833 | 0.848 | 0.902 | 
CCOC(N)=O [Urethane] | 0.917 | 0.828 | 0.744 | 1.11 | 
CCN(Cc1c(F)cccc1Cl)c1c([N+](=O)[O-])cc(C(F)(F)F)cc1[N+](=O)[O-] [Flumetralin] | 0.795 | 0.84 | 1 | 0.766 | 1.1
CCCCCCC(C=O)=Cc1ccccc1 [2-Benzylideneoctanal] | 1.03 | 1.02 | 1.17 | 1.41 | 
O=C1OC(=O)C2C3C=CC(C3)C12 (stereo unspecified) [2-Norbornene-5,6-dicarboxylic anhydride] | 0.885 | 0.853 | 0.966 | 1.39 | 
NC(=O)N(O)[C@@H]1C=C[C@H](Oc2cccc(Oc3ccc(F)cc3)c2)C1 | 1.08 | 0.968 | 1.14 | 0.801 | 
Cn1c(=O)c2c(ncn2C)n(C)c1=O [Caffeine] |  |  |  | 1.67 | 
CCC(C)N(C)C(=O)c1cc2ccccc2c(-c2ccccc2Cl)n1 (stereo unspecified) | 1.12 | 0.996 | 1.2 | 0.598 | 
Nc1cccc2c(N)cccc12 [1,5-Naphthalenediamine] | 0.805 | 0.822 | 0.856 | 0.73 | 
COCCOCCOCCOC [Triethylene glycol dimethyl ether] | 0.87 | 0.826 | 0.823 | 0.956 | 
O=C(O)c1cn(C2CC2)c2cc(N3CCNCC3)c(F)cc2c1=O [Ciprofloxacin] | 0.893 | 1.01 | 0.9 | 0.336 | 1.06
COC(=O)c1ccccc1O [Methyl salicylate] | 1.22 | 1.13 | 1.23 | 0.53 | 
CC(C)(C)c1ccc(O)c(C(C)(C)C)c1 [2,4-Di-tert-butylphenol] | 1.1 | 0.968 | 1.12 | 1.14 | 
Cc1nc(-c2ccc3c(c2)CCN(CCC2CCC(NC(=O)/C=C/c4ccc(F)cc4)CC2)CC3)no1.Cl (stereo unspecified) | 0.843 | 0.783 | 0.931 | 1.05 | 
COc1ccc(-n2nc(C(F)F)cc2-c2ccc(S(C)=O)cc2)cc1 (stereo unspecified) | 0.947 | 1.1 | 1.03 | 0.786 | 
CCCCCCCCCCCCCCCCOS(=O)(=O)[O-].[Na+] [Sodium hexyldecyl sulfate] | 1.11 | 1.05 | 1.11 | 0.434 | 
CCCCc1nc2cccnc2n1Cc1ccc(-c2ccccc2-c2nnn[n-]2)cc1.[Na+] | 1.02 | 0.923 | 0.981 | 0.506 | 

Compound | Renilla luciferase signal (concentration: 0.1 uM) | Renilla luciferase signal (concentration: 1 uM) | Renilla luciferase signal (concentration: 10 uM) | Renilla luciferase signal (concentration: 100 uM) | Renilla luciferase signal (concentration: 0.01 uM)
OC1CCC(C2CCCCC2)CC1 (stereo unspecified) [4-Cyclohexylcyclohexanol] | 1.08 | 1.05 | 0.999 | 1.11 | 
c1ccc2[nH]c(-c3cscn3)nc2c1 [Thiabendazole] | 0.945 | 1.02 | 1.02 | 1.3 | 0.821
O=CCCCC=O [Glutaraldehyde] | 0.836 | 0.853 | 0.868 | 0.828 | 
CC(=O)N1CCN(c2ccc(OC[C@H]3CO[C@](Cn4ccnc4)(c4ccc(Cl)cc4Cl)O3)cc2)CC1 [Ketoconazole] | 0.861 | 1.05 | 0.736 | 0.18 | 
CCCCC(CC)COC(=O)CC(C(=O)OCC(CC)CCCC)S(=O)(=O)[O-].[Na+] (stereo unspecified) [Docusate sodium] | 1.03 | 1.01 | 0.965 | 0.621 | 
CC/C(=C(/CC)c1ccc(O)cc1)c1ccc(O)cc1 [Diethylstilbestrol] | 0.927 | 1.08 | 0.865 | 0.111 | 
CCCCCCCC=O [Octanal] | 1.05 | 0.988 | 1.03 | 1.28 | 
CN(C)C(=O)NC1(c2ccccc2)CCN(CCC[C@@]2(c3ccc(Cl)c(Cl)c3)CCCN(C(=O)c3ccccc3)C2)CC1 | 0.809 | 0.927 | 0.892 | 0.0287 | 
O=C1CN(N=Cc2ccc([N+](=O)[O-])o2)C(=O)N1 [Nitrofurantoin] |  |  | 1.69 |  | 
CCCCCCCCCCCCCCCCO [1-Hexadecanol] | 0.784 | 0.97 | 0.954 | 1.45 | 
Cc1cn([C@H]2C=C[C@@H](CO)O2)c(=O)[nH]c1=O [Stavudine] | 0.957 | 1.07 | 0.973 | 0.903 | 
CC[C@@H]1C[C@H](N(Cc2cc(C(F)(F)F)cc(C(F)(F)F)c2)C(C)=O)c2cc(C(F)(F)F)ccc2N1C(=O)OC(C)C | 0.773 | 0.801 | 0.678 | 0.813 | 
CC[C@H]1CC[C@H](NCc2cc3c(cc2OC)[C@H]2C[C@H]2C(=O)N3C)[C@H](c2ccccc2)N1 | 0.925 | 0.69 | 0.042 | 0.0275 | 
Cc1cccc2ccccc12 [1-Methylnaphthalene] | 0.734 | 0.803 | 0.61 | 0.88 | 
CCCCCCCCO [1-Octanol] | 0.95 | 1.08 | 1.12 | 1.23 | 
C[Si]1(C)O[Si](C)(C)O[Si](C)(C)O[Si](C)(C)O1 [Octamethylcyclotetrasiloxane] | 0.729 | 0.874 | 0.856 | 0.947 | 
NC(=O)NO [Hydroxyurea] | 0.943 | 0.888 | 0.86 | 1.3 | 
CC1=C(/C=C/C(C)=C/C=C/C(C)=C/CO)C(C)(C)CCC1 [Retinol] | 1.14 | 1.31 | 0.988 | 0.0618 | 
OC[C@H]1O[C@@H]2O[C@H]3[C@H](O)[C@@H](O)[C@@H](O[C@H]4[C@H](O)[C@@H](O)[C@@H](O[C@H]5[C@H](O)[C@@H](O)[C@@H](O[C@H]6[C@H](O)[C@@H](O)[C@@H](O[C@H]7[C@H](O)[C@@H](O)[C@@H](O[C@H]1[C@H](O)[C@H]2O)O[C@@H]7CO)O[C@@H]6CO)O[C@@H]5CO)O[C@@H]4CO)O[C@@H]3CO [alpha-Cyclodextrin] |  |  |  | 1.77 | 

Retrieved by structure from the entries so far, 2 records:
Compound | Renilla luciferase signal (concentration: 0.1 uM) | Renilla luciferase signal (concentration: 1 uM) | Renilla luciferase signal (concentration: 10 uM) | Renilla luciferase signal (concentration: 100 uM) | Renilla luciferase signal (concentration: 0.01 uM)
CN(C)C(=O)NC1(c2ccccc2)CCN(CCC[C@@]2(c3ccc(Cl)c(Cl)c3)CCCN(C(=O)c3ccccc3)C2)CC1 | 0.809 | 0.927 | 0.892 | 0.0287 | 
O=C1CN(N=Cc2ccc([N+](=O)[O-])o2)C(=O)N1 [Nitrofurantoin] |  |  | 1.69 |  | 
